Assay results taken from article PMC7946903.
Results are given in words; binding and its absence hold for the method and conditions named. Binding seen in cells or lysates may run through a third protein. Some entries that bind do so weakly or less than the wild type. Sequences can lack the tags named with a protein.

Target: TET2 (5mC hydroxylase) (human (endogenous in THP-1 and moDC)) (UniProt Q6N021)
Test: co-IP; anti-TET2 (MABE462) covalently coupled to Dynabeads M-270 Epoxy; lysates of THP-1 or moDC 3 h after electroporation with mRNA for 3×FLAG-EGR2 or 3×FLAG-NAB2; 20 mM Tris-HCl pH 7.5, 150 mM NaCl, 1% Triton X-100, 2 mM EDTA; 2.5 h at room temperature; blot with anti-FLAG M2; anti-IgG beads as control

Molecule: 3×FLAG-EGR2 (early growth response 2, FLAG-tagged, wild-type) (from UniProt P11161 1-476)
- binding: binds

B1: 3×FLAG-NAB2 (FLAG-tagged, wild-type) (protein, UniProt Q15742 1-525)
chain: MHRAPSPTAEQPPGGGDSARRTLQPRLKPSARAMALPRTLGELQLYRVLQRANLLSYYETFIQQGGDDVQQLCEAGEEEFLEIMALVGMATKPLHVRRLQKALREWATNPGLFSQPVPAVPVSSIPLFKISETAGTRKGSMSNGHGSPGEKAGSARSFSPKSPLELGEKLSPLPGGPGAGDPRIWPGRSTPESDVGAGGEEEAGSPPFSPPAGGGVPEGTGAGGLAAGGTGGGPDRLEPEMVRMVVESVERIFRSFPRGDAGEVTSLLKLNKKLARSVGHIFEMDDNDSQKEEEIRKYSIIYGRFDSKRREGKQLSLHELTINEAAAQFCMRDNTLLLRRVELFSLSRQVARESTYLSSLKGSRLHPEELGGPPLKKLKQEVGEQSHPEIQQPPPGPESYVPPYRPSLEEDSASLSGESLDGHLQAVGSCPRLTPPPADLPLALPAHGLWSRHILQQTLMDEGLRLARLVSHDRVGRLSPCVPAKPPLAEFEEGLLDRCPAPGPHPALVEGRRSSVKVEAEASRQ
- binding: binds
